“And” between values parts separate entries of the source, which are not always exact repeats. Equal entries are not always repeated. The list shows a part of the results. For some of these results: Construct or isoform of the protein are uncertain.
Experiments:
Experiment in all cases: protein microarray (ProtoArray v5.0), streptavidin-Alexa Fluor 647
Conditions in all cases: 3'-biotin; 20 mM Tris (pH 7.5), 5 mM MgCl2, 100 mM KCl, 0.1% Tween-20, A/T-rich and random oligonucleotide blockers; temperature not stated; high values mean tight binding
DCX = biological target: T1, DCX (UniProt O43602)
T1 sequence: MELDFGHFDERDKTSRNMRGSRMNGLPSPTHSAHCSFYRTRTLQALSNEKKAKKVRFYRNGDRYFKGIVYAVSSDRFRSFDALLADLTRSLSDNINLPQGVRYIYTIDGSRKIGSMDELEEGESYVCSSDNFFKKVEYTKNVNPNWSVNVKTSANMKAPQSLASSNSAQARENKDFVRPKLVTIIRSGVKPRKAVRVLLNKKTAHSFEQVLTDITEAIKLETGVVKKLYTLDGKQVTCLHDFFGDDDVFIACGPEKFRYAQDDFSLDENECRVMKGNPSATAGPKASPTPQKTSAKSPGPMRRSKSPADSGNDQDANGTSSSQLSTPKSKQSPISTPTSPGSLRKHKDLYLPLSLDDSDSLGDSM

The chains behind the UniProt entries cited, without tags or fusion partners.
UniProt Q8TDD1, whole entry: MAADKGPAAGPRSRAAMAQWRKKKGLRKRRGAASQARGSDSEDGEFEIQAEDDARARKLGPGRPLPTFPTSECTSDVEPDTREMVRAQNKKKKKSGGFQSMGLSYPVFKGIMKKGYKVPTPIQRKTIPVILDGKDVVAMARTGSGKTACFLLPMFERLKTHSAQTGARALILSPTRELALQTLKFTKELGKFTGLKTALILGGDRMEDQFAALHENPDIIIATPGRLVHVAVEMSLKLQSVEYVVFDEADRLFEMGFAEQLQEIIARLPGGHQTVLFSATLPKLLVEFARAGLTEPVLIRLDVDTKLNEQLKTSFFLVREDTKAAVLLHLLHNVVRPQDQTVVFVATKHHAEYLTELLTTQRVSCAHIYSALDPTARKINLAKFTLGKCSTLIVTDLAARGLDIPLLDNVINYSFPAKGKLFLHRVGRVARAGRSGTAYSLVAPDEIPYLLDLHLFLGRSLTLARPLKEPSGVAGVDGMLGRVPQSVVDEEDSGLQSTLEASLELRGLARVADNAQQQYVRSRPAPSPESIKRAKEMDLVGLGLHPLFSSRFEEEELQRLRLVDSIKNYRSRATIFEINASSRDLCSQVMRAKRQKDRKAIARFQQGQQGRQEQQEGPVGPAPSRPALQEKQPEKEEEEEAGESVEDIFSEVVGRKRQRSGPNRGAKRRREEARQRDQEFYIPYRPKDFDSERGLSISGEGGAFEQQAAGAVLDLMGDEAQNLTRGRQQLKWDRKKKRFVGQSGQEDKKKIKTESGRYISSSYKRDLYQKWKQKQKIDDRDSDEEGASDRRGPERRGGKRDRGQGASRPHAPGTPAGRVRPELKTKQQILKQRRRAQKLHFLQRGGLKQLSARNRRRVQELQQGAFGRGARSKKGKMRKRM

DDAH2 (human) = test system: DDAH2 (human)
DDX21 = biological target: T2, DDX21 (UniProt Q9NR30)
T2 sequence: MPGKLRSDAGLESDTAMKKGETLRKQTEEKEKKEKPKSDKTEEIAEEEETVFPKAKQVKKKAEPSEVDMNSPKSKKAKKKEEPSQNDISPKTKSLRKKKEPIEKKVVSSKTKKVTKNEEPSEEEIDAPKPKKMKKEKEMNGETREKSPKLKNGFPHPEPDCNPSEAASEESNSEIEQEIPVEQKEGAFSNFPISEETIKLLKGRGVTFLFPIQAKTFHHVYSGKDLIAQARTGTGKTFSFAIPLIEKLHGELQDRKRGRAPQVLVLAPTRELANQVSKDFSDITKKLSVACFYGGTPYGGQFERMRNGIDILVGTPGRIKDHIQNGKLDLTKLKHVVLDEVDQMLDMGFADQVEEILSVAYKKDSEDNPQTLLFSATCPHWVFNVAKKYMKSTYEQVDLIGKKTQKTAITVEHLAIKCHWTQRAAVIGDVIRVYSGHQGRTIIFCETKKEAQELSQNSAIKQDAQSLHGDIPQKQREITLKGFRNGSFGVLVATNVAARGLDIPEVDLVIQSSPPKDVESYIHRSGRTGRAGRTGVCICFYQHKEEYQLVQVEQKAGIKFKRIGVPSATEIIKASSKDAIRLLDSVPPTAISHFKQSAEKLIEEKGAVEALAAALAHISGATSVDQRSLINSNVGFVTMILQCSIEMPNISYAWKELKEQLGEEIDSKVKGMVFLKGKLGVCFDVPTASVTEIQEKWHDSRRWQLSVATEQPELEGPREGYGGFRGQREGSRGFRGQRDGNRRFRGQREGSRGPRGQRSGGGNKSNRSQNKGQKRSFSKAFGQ

DDX54 = DDX54 (UniProt Q8TDD1)
DDX55 = biological target: T3, DDX55 (UniProt Q8NHQ9)
T3 sequence: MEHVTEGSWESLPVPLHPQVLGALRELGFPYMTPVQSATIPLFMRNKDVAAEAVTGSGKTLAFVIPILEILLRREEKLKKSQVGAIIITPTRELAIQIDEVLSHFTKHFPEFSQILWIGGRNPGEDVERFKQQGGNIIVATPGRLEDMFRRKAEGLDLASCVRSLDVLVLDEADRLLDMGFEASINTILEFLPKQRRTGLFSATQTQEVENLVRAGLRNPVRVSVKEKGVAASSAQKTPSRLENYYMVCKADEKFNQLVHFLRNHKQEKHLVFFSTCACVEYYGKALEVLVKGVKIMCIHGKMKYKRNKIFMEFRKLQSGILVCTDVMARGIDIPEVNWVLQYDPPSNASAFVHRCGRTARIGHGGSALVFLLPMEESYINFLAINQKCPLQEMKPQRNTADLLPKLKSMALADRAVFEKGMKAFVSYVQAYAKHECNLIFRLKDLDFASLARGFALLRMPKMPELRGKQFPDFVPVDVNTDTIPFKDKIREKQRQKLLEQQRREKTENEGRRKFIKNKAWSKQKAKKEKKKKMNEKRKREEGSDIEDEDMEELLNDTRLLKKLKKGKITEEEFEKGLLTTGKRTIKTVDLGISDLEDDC

DEFA6 (human) = test system: DEFA6 (human)
DEFB1 (human) = test system: DEFB1 (human)
DEFB119 (human) = test system: DEFB119 (human)
DFFA (human) = test system: DFFA (human)
DFNA5 (human) = test system: DFNA5 (human)

GGTGACAGGGGTATGGGGAGGGG [G4-2 biotinylated (Ct1)]
binding signal (DCX): 3.73 z-score
binding signal (DDAH2 (human)): -0.372 z-score
binding signal (DDX21): 6.44 z-score
binding signal (DDX54): 5.87 z-score
binding signal (DDX55): 5.51 z-score
binding signal (DEFA6 (human)): -0.386 z-score
binding signal (DEFB1 (human)): -0.372 z-score
binding signal (DEFB119 (human)): -0.365 z-score
binding signal (DFFA (human)): -0.404 z-score and -0.401 z-score
binding signal (DFNA5 (human)): -0.393 z-score

Source: publication PMC5996148
